Laboratory results: PMC5998130
These are yes or no findings as the source states them, for the method shown. Binding seen in cells or lysates may run through a third protein. Some binding calls cover weakened binding; strength is not graded here.

The chains behind the UniProt entries cited, without tags or fusion partners.
UniProt Q13185: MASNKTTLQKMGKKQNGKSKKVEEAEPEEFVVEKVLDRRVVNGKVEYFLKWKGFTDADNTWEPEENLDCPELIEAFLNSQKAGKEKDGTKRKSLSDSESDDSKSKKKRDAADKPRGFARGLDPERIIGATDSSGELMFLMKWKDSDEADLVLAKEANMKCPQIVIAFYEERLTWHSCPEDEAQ
UniProt Q6KC79: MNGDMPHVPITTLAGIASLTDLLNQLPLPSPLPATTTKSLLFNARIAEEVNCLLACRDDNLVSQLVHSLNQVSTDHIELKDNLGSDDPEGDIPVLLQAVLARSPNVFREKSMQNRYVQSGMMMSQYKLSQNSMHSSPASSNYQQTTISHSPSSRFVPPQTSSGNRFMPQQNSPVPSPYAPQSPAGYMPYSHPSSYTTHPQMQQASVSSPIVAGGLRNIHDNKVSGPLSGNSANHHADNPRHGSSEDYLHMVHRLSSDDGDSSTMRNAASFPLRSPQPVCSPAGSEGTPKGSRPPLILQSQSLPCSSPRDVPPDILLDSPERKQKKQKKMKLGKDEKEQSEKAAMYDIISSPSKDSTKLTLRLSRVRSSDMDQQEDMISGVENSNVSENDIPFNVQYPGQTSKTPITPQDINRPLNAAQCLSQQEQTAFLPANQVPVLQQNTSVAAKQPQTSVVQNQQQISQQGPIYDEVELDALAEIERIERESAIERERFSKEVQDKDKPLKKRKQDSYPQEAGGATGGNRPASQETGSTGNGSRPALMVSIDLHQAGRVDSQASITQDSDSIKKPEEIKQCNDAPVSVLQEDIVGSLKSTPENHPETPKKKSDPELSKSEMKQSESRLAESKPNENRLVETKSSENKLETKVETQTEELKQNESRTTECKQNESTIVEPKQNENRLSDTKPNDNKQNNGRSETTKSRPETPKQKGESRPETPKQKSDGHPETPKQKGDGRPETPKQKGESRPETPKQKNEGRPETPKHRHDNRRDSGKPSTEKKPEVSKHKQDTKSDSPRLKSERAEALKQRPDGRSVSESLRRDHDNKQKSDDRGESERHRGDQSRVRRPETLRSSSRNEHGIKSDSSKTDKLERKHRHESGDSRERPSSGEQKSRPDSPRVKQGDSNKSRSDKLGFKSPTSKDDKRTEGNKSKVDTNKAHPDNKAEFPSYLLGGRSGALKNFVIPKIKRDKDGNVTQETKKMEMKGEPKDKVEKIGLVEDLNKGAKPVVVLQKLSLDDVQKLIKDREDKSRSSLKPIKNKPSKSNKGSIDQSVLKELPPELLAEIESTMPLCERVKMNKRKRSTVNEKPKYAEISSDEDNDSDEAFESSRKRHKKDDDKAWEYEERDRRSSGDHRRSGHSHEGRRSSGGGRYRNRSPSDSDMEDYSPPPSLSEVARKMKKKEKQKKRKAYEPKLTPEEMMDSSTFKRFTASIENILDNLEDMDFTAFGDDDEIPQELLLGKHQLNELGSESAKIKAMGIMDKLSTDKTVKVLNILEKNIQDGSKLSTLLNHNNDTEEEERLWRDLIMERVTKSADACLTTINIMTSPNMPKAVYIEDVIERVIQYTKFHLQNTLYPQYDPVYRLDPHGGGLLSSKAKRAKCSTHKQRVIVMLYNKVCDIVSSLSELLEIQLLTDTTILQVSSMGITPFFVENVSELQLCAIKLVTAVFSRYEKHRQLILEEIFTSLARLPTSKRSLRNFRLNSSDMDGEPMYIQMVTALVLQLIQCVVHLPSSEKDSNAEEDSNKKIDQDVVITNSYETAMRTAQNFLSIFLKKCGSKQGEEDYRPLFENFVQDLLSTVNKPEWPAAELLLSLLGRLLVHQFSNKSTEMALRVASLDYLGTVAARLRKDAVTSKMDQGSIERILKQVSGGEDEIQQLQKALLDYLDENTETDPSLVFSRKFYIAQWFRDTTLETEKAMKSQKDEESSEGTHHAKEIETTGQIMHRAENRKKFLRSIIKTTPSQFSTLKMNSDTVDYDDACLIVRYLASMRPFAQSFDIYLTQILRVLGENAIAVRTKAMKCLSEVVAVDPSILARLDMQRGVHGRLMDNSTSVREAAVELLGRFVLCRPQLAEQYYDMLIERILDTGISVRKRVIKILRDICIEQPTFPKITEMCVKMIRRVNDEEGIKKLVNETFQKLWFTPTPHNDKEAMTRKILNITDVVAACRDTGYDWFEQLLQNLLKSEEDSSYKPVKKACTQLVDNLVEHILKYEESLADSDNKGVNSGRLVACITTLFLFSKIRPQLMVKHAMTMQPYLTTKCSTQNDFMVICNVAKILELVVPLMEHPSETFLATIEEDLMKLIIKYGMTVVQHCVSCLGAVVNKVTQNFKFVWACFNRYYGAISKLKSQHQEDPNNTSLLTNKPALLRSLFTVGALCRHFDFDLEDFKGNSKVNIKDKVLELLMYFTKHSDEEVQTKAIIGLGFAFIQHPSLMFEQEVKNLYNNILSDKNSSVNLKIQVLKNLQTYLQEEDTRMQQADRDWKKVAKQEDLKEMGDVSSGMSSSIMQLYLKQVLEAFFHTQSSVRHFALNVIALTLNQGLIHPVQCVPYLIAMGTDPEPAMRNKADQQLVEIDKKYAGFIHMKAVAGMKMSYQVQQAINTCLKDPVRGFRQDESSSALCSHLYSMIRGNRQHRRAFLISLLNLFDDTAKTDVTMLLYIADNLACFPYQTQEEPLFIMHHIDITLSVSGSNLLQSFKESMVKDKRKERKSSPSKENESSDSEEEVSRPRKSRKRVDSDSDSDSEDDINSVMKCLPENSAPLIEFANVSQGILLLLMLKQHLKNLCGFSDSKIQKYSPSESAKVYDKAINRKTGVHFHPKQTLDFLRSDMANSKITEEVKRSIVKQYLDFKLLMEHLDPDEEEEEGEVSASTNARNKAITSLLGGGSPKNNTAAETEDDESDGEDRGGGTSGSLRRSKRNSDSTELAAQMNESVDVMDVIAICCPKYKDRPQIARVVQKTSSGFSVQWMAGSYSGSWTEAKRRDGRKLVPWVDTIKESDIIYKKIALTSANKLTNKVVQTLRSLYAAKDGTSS
UniProt Q8TAQ2: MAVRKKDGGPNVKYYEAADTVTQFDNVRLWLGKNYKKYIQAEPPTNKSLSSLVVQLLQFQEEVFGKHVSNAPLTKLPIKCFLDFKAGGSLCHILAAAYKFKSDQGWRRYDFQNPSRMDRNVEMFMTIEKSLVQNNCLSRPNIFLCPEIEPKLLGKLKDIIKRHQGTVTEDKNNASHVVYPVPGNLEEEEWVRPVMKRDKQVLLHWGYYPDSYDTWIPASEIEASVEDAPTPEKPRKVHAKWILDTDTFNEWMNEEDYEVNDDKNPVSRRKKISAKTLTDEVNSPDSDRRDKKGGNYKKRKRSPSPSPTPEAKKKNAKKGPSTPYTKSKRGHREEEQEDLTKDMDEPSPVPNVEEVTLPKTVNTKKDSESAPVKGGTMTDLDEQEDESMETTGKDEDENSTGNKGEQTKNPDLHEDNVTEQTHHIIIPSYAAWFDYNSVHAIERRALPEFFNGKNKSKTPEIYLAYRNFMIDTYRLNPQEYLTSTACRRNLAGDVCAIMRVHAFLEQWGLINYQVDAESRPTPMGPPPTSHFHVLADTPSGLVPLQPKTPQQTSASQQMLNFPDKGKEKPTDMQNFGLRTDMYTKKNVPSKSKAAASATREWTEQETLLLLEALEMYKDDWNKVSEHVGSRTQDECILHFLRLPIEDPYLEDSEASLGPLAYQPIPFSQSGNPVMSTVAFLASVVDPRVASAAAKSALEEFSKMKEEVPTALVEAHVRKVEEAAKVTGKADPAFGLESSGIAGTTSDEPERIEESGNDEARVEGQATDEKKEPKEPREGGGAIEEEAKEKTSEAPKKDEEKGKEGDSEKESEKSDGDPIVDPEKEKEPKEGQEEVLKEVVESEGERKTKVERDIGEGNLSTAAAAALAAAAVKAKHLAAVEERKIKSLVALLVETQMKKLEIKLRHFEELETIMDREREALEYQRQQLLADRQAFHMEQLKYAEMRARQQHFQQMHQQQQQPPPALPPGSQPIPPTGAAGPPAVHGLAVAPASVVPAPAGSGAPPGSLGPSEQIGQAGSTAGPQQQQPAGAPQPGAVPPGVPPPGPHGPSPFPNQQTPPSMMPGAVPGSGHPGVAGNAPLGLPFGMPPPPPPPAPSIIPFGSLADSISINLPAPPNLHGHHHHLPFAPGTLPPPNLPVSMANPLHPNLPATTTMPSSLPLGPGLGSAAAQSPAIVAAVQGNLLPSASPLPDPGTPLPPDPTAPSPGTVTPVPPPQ

Biological target: Estrogen Receptor alpha (ERα) (human (endogenous in MCF7, human PDX tumours and human breast tumours)) (UniProt P03372)
Assay: proximity ligation; PLA in methanol-fixed MCF7 cells with primary antibodies against ERα and the partner; untreated cells, and cells treated with vehicle or 100 nM OHT (2 h, 6 h)

| binding | Substance |
| --- | --- |
| binds | CBP (CREB-binding protein) (from UniProt Q92793 1-2442) |
| binds | CBX3 (HP1γ) (from UniProt Q13185 1-183) |
| binds | NIPBL (from UniProt Q6KC79 1-2804) |
| binds | SMARCC2 (BAF170) (from UniProt Q8TAQ2 1-1214) |
